Assay results taken from patent US20230047413A1.
Changes are numbered by the printed parent chain. No constants are given. Whether binding was seen depends on the method and setting. Some entries that bind do so weakly or less than the wild type. Values belong to the binder of their own block, whether it stands above or below them.

Chains of the proteins cited; added tags and fusions are not shown. Lines headed by an entry give the natural chain unless they say otherwise; changes in a name come on top. A line that says so, or that is headed by a name, gives the form on record, which may keep a tag or linker.
PHF-tau (paired helical filament tau isolated from Alzheimer's disease brain) (P10636, form named): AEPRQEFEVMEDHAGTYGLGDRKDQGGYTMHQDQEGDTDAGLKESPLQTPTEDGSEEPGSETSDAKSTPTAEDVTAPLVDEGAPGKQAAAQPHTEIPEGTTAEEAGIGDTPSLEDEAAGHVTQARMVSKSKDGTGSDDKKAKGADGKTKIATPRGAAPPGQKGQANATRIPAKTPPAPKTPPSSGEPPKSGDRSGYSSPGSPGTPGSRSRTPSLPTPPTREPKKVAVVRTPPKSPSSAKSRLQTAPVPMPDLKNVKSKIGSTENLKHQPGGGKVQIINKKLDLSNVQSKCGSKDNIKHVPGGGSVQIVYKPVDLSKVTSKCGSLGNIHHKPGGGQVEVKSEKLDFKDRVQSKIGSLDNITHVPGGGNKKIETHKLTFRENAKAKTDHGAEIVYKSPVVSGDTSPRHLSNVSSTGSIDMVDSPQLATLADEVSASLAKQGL

How the values were obtained:
[1] = biological target: PHF-tau (paired helical filament tau isolated from Alzheimer's disease brain) (human) (UniProt P10636); assay: SPR (ProteOn), PHF-tau capture-coupled via HT7 on the chip, antibody injected; concentrations not labelled on the sheet
[2] = biological target: PHF-tau (paired helical filament tau isolated from Alzheimer's disease brain) (human) (UniProt P10636); assay: SPR (ProteOn), PHF-tau capture-coupled via HT7 on the chip, Fab injected; concentrations not labelled on the sheet

B3: B330 (Fab of B711) (Fab, V domains shown)
VH: QVQLVESGGGVVQPGRSLRLSCAASGFTFTSYAMSWVRQAPGKGLEWVASITKGGNTYYADSVKGRFTISRDNSKNTLYLQMNSLRAEDTAVYYCARGWGIYGWFAYWGQVTLVTVSS
VL: DIQMTQSPSSLSASVGDRVTITCKASQDINRWLNWFQQKPGKAPKSLIYRANRLLDGVPSRFSGSGSGTDFTLTISSLQPEDFATYYCLQYDEFPLTFGQGTKLEIK
binding [2]: binds

B4: B331 (Fab of B333) (Fab, V domains shown)
VH: B3 VH with T30S, T52S, I101D
VL: B3 VL
binding [2]: binds

Now from value to binder:

binding [1]: binds
B1: B711 (antibody, human IgG1, kappa, V domains shown)
VH: B3 VH
VL: DIQMTQSPSSLSASVGDRVTITCKASQDINRWLNWFQQKPGKAPKSLIYRANRLLDGVPSRFSGSGSGTDFTLTISSLQPEDFATYYCLQYDEFPLTFGQGTKLEIKR

binding [2]: binds
B2: B332 (Fab of B809) (Fab, V domains shown)
VH: B3 VH
VL: B3 VL with W32Y

binding [1]: binds
B5: B809 (antibody, human IgG1, kappa, V domains shown)
VH: B3 VH
VL: B1 VL with W32Y

binding [1]: binds
B6: B333 (antibody, human IgG1, kappa, V domains shown)
VH: B3 VH with T30S, T52S, I101D
VL: B1 VL
